Some of the results follow.

Protein sequences, listed by entry. Tags and fused reporters are not part of them.
UniProt Q0JBA9, entry or part of it: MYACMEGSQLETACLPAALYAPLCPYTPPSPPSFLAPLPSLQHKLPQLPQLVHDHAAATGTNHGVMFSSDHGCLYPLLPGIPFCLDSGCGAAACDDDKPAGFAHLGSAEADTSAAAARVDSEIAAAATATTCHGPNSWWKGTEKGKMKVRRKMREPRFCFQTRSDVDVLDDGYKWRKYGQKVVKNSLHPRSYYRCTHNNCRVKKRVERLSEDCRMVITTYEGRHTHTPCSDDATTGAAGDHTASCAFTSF

The assay concerns the target OsWRKY34 (Oryza sativa, UniProt Q0JBA9 1-250). Put plainly: protein-binding microarray (RPBM); PBS, 2% BSA, 51.3 ng/ul salmon testes DNA, 50 uM zinc acetate, 200 nM TF, 25 C, 1 h; high values mean tight binding. Conditions: protein: recombinant; tags: N-terminal polyhistidine and DsRed monomer fusion (pET32a); label: CyDye5-dUTP incorporated in the synthesized complementary strand; 3' TTTTT single-stranded linker to array surface; dsDNA, one strand shown. The gist of the method:
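A custom Agilent array was converted to double-stranded form by primer extension with Cy5-dUTP and blocked with 2% BSA. Protein at 200 nM in PBS with 2% BSA, salmon testes DNA and 50 µM zinc acetate was applied for 1 h at 25 °C, followed by washing. The proteins were polyhistidine–DsRed N-terminal fusions of transcription factors, expressed in E. coli BL21-CodonPlus and Ni–NTA-purified. The binding signal is per-feature fluorescence intensity (arbitrary units) from an Axon 4000B scanner.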
“ACATGCCAGCTCCAACACACGAGCTACAACCCGGTAATTACGGAGTCACCTAGTGCAG”: the binding signal was 9970 fluorescence intensity (a.u.). Turning to “CGTGTACGCGTTGTTGGTGCCGGAGGCGTTCTTCCGCGACCGGAGTCACCTAGTGCAG”, the binding signal was 8440 fluorescence intensity (a.u.).

In the case of “ATTCCTAGCTACTCCTACTACCACTGACTTGTTGGTTCCACGGAGTCACCTAGTGCAG”, the binding signal is 8030 fluorescence intensity (a.u.). As for “ACCTTGCGAGCAACACATGTCCTCCTCGCTATTGTACTCCCGGAGTCACCTAGTGCAG”, the binding signal is 8090 fluorescence intensity (a.u.). For the sequence “TATGCATGTAGCCACCTTGAATGCCTCTAATTTCATGTTTCGGAGTCACCTAGTGCAG”, the binding signal is 8510 fluorescence intensity (a.u.). Take “GGGGATTTCGAGTTGTGATGGGTTGAGGTTGATTAGATGCCGGAGTCACCTAGTGCAG”: the binding signal is 15800 fluorescence intensity (a.u.). For the sequence “GTACATATCTCGTATTCTCATTATGTGGTTGTTTAAATCCCGGAGTCACCTAGTGCAG”, the binding signal is 8660 fluorescence intensity (a.u.). With “TATATTTTTACTTTGGTCAAAGTTAGACTGTTTTATGTTTCGGAGTCACCTAGTGCAG”, the binding signal was 13400 fluorescence intensity (a.u.). For the sequence “AACTAACCTTATAGATCGACACATCTCGTCCACGCTTAGTCGGAGTCACCTAGTGCAG”, the binding signal was 8470 fluorescence intensity (a.u.). For the sequence “GCTGCAGCTGCCATCCACCCACAGAACCCACTTGCATTATCGGAGTCACCTAGTGCAG”, the binding signal was 9120 fluorescence intensity (a.u.). As to “TACCACCCCGAGCTGAGTCCTCTCGCCATCATCCTCCTATCGGAGTCACCTAGTGCAG”, the binding signal was 9700 fluorescence intensity (a.u.). On to “GCCACGTAGGACGGTCAATCCGGTCAAATGTGCTTTGGACCGGAGTCACCTAGTGCAG”, for which the binding signal is 9540 fluorescence intensity (a.u.). For the sequence “CTACAGTGCGTACATCCTAACTATTAGGGCGTTATCTTTTCGGAGTCACCTAGTGCAG”, the binding signal is 9170 fluorescence intensity (a.u.). With “TTCCAATCCTTGCCACGCCCACCGCAGACCAAAGCCGCGCCGGAGTCACCTAGTGCAG”, the binding signal was 8540 fluorescence intensity (a.u.). As for “AGGCCACCACCACTCACTCCTTCAACTTCAATGGCAGCTCCGGAGTCACCTAGTGCAG”, the binding signal is 8090 fluorescence intensity (a.u.). Turning to “TGGTGGTGAGGAGGAGGAGGAGGAGGGCGGGGTCGTCGTCCGGAGTCACCTAGTGCAG”, the binding signal is 16200 fluorescence intensity (a.u.). Then “GTTTAGTGTTTTAGTTGCCTTTATCAATGATATTGCGTGCCGGAGTCACCTAGTGCAG”, with 8980 fluorescence intensity (a.u.); and “GACACTAATTTAGGACGAATGCATTATACTGCTTCTCATACGGAGTCACCTAGTGCAG”, with 9420 fluorescence intensity (a.u.).

As for “TTGCATCAACTTCCTCCTTTTCTTTCTCGCTTTCGCTCTTCGGAGTCACCTAGTGCAG”, the binding signal is 9000 fluorescence intensity (a.u.).

As to “ACCTGCTTACTAGTTACTACCCGTCCGCCTCGATCTTACCCGGAGTCACCTAGTGCAG”, the binding signal was 9330 fluorescence intensity (a.u.). Then “GGTGTGGTTGGTTCGATATTTAAGACCTTTTAATCCAAAGCGGAGTCACCTAGTGCAG”, with 11400 fluorescence intensity (a.u.); and “TGTTCTTATGTTCAACTCCCGGGACACTGTTCATCATACGCGGAGTCACCTAGTGCAG”, with 8760 fluorescence intensity (a.u.). Turning to “TTACTTATCTCTCTAGTACTCCTACTACTGCTAGTGTGCTCGGAGTCACCTAGTGCAG”, the binding signal was 8030 fluorescence intensity (a.u.). In the case of “CTCCCTGCTTGTATGTCACTCTACACTTGATTTATCTTAACGGAGTCACCTAGTGCAG”, the binding signal is 8940 fluorescence intensity (a.u.). For the sequence “ATCTCACCTCCCATATCTTATTTGCCAAACACACCCTTCCCGGAGTCACCTAGTGCAG”, the binding signal is 8260 fluorescence intensity (a.u.).

For “AACCATATCATTTCATAGCCATTTATTTTAACTTATATCCCGGAGTCACCTAGTGCAG”, the binding signal was 9590 fluorescence intensity (a.u.). Take “AGACAGCTTCTCAATTTGTTTCTTTGGCCCTGATTTCCTTCGGAGTCACCTAGTGCAG”: the binding signal is 9000 fluorescence intensity (a.u.). On to “TTCCTGTTCGACTGCGTCGCCGAGTTCTTCGCCGAACTCCCGGAGTCACCTAGTGCAG”, for which the binding signal is 8420 fluorescence intensity (a.u.). Take “ACTGTTTTCACACATTGTACTTCCTGGATCTGTTGTGCTCCGGAGTCACCTAGTGCAG”: the binding signal is 8940 fluorescence intensity (a.u.). For the sequence “AGTCCACAATTTATATAGCAAGCATTCTTTCTCCTTCGGTCGGAGTCACCTAGTGCAG”, the binding signal is 8110 fluorescence intensity (a.u.). On to “GTGGTGGTGGTGGACTGGTGGTGGCGGCTAGCGAGATAATCGGAGTCACCTAGTGCAG”, for which the binding signal is 16200 fluorescence intensity (a.u.).

“AAATTTTTGACATGATTTTGGAGTTGTGTGTAGCCGCCACCGGAGTCACCTAGTGCAG”: the binding signal is 8130 fluorescence intensity (a.u.). Then “GCCGCCTTGCACCTGCCTGCTCTGCGCCGCATGCCGCCACCGGAGTCACCTAGTGCAG”, with 8560 fluorescence intensity (a.u.); and “ACTATAATACTGTCTCTATTTTTGTTGATATATAGTATCTCGGAGTCACCTAGTGCAG”, with 9120 fluorescence intensity (a.u.).

“TAGTGTCTCTTATTCCCACGGAACGATTTTCTTTCTTATCCGGAGTCACCTAGTGCAG”: the binding signal is 11200 fluorescence intensity (a.u.). Consider “CTACGTATCAGTACAACCCATATGTCAGTCACATATAGAACGGAGTCACCTAGTGCAG”, for which the binding signal is 8430 fluorescence intensity (a.u.). As for “AGCATCCGCAAGAATTGTCAATTTCCCTGCCTATTAATCTCGGAGTCACCTAGTGCAG”, the figure is 8320 fluorescence intensity (a.u.).

For the sequence “TTTTTGATCTGTCCCGATTTGTAACTTTTTCATTTCTTTTCGGAGTCACCTAGTGCAG”, the binding signal is 10900 fluorescence intensity (a.u.).

Take “GGGAGGTGTGGTCGGTGCCGGGGACGTCGCACGGTGTGGACGGAGTCACCTAGTGCAG”: the binding signal was 10600 fluorescence intensity (a.u.). For “CATCATGCTCATGCTTTCTGAACTGCTTGCGCATCCGTATCGGAGTCACCTAGTGCAG”, the binding signal is 9170 fluorescence intensity (a.u.). As for “AACTCGGCCATCTCAACTTCTTGGTCAACCAGTTATTATACGGAGTCACCTAGTGCAG”, the figure is 9640 fluorescence intensity (a.u.); as for “GTGGAGTGGAGCTGAAGCCCCGCTAGGATCGCCTTTTTTCCGGAGTCACCTAGTGCAG”, 9840 fluorescence intensity (a.u.).

These data come from paper PMC7819943, “Rice protein-binding microarrays: a tool to detect cis-acting elements near promoter regions in rice”.
